# The supplement of paper PMC10849652
# Chains of the proteins cited; added tags and fusions are not shown. Lines headed by an entry give the natural chain unless they say otherwise; changes in a name come on top.
# UniProt P27348: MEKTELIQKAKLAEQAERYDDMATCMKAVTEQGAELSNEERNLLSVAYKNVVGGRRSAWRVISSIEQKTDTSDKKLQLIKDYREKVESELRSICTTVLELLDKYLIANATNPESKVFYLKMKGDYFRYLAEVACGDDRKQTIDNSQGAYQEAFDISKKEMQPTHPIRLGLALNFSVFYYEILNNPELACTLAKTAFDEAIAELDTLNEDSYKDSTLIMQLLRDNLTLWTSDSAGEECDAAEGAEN
# UniProt P12956: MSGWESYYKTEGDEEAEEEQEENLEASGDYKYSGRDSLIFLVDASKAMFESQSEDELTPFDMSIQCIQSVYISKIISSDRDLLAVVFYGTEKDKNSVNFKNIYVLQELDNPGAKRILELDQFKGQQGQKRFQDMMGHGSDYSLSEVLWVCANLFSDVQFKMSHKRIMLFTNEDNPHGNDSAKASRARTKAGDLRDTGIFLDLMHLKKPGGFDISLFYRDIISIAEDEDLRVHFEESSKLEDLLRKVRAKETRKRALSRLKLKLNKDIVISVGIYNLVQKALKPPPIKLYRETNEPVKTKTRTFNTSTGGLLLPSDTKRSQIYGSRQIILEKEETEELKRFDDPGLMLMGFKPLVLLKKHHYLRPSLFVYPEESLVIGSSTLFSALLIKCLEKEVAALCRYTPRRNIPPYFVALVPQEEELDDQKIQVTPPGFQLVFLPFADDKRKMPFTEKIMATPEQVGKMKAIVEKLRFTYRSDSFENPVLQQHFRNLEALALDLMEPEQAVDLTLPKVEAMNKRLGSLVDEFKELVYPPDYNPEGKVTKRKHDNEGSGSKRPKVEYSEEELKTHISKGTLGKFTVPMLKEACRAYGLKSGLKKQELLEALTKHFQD
# UniProt Q9ULJ6: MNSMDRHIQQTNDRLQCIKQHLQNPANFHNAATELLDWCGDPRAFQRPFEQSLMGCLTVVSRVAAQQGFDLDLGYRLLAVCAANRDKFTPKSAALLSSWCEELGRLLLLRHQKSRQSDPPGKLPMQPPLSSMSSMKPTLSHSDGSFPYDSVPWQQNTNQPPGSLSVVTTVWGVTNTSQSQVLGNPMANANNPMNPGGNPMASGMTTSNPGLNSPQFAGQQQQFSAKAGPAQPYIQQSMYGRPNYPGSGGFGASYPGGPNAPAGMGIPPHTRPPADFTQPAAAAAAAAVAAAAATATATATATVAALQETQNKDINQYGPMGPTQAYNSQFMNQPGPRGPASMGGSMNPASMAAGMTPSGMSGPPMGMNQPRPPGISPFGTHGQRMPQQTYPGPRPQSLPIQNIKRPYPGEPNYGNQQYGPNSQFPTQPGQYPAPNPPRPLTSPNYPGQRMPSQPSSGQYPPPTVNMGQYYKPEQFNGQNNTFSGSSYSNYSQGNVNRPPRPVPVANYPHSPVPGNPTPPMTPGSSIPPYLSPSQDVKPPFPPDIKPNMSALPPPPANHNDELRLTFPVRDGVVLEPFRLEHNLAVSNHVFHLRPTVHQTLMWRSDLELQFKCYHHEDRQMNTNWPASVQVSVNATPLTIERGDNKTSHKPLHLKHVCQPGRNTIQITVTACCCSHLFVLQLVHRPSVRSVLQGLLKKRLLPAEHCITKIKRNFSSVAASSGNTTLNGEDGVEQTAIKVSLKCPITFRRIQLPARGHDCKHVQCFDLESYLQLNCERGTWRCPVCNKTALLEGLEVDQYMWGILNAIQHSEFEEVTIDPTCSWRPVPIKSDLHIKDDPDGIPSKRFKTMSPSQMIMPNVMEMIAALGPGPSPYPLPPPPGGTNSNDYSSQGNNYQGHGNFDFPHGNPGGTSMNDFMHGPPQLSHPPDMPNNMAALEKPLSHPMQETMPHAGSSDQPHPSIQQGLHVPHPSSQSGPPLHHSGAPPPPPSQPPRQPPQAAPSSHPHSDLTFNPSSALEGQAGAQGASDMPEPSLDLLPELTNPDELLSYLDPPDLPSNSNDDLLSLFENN
# UniProt P17028: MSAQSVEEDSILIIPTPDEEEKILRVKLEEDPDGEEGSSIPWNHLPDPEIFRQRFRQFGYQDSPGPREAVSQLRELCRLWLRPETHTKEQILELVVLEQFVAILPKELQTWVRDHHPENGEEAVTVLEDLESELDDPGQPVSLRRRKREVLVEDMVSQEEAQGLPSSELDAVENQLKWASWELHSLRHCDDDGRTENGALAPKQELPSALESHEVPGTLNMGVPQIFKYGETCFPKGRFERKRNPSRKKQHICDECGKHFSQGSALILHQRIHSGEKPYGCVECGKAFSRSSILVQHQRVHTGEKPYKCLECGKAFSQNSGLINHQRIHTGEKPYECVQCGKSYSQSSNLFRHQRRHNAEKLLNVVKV
# UniProt Q96QU8: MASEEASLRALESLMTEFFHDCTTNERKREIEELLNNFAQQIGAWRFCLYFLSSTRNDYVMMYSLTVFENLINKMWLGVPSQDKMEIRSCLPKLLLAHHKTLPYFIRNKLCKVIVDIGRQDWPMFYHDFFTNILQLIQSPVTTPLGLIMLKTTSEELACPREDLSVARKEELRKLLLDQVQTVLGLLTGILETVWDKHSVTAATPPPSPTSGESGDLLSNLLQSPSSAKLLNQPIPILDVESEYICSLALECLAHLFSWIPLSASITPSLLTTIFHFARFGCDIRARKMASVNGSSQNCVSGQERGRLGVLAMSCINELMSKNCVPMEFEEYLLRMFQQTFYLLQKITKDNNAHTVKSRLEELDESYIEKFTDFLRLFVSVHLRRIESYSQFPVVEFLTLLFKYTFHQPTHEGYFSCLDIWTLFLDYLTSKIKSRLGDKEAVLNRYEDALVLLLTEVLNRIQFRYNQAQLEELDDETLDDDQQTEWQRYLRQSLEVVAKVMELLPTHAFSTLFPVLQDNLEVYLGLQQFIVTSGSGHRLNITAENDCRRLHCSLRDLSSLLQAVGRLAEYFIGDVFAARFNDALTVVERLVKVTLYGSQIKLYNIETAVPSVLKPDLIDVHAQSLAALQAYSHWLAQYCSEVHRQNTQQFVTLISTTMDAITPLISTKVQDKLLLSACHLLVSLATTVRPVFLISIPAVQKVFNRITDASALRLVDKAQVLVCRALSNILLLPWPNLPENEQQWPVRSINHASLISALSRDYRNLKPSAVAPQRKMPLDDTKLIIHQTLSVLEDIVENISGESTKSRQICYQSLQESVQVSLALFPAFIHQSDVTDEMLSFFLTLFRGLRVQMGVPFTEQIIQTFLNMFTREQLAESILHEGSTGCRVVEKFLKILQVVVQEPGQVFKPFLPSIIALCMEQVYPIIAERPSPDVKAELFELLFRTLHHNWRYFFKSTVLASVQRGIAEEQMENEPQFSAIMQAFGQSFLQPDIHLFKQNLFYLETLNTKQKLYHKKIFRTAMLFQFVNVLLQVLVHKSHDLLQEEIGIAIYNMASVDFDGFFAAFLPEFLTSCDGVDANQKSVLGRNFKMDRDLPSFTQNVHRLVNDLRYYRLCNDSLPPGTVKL
# UniProt Q9NQW7: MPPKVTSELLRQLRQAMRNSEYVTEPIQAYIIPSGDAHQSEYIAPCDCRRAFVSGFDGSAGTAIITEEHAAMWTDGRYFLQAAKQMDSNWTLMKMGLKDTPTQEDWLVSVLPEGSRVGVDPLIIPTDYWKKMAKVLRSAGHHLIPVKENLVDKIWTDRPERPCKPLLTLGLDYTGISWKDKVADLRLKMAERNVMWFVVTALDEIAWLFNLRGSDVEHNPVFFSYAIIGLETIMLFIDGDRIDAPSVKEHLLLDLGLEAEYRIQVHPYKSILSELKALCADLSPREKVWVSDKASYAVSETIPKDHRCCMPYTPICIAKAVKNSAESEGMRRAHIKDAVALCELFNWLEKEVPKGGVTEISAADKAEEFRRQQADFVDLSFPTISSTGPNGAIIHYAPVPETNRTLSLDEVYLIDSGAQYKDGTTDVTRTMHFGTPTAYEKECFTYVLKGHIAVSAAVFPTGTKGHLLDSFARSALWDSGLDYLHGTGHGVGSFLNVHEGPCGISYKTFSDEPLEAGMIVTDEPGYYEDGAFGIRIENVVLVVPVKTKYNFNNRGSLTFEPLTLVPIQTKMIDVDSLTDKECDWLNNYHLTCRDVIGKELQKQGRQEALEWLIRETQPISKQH
# UniProt Q9NRH1: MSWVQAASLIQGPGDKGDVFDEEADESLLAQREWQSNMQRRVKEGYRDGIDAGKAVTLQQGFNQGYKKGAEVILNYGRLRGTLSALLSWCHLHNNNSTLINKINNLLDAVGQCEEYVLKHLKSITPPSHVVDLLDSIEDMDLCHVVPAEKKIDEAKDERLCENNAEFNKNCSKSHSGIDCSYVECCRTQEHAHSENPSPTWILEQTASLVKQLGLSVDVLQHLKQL
# UniProt Q96NC0: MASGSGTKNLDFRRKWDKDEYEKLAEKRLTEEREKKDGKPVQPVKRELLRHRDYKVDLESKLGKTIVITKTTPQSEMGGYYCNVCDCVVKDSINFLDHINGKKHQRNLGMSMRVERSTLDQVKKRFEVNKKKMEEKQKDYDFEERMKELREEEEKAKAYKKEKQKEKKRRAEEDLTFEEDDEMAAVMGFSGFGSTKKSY
# UniProt Q9BSR8: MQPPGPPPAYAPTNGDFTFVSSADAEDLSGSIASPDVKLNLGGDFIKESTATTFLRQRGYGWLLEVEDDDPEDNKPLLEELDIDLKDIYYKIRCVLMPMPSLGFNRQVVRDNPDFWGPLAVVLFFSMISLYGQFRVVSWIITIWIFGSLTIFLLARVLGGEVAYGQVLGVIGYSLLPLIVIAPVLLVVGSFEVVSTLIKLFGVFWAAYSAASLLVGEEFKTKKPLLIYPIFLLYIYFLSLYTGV
# UniProt Q5SVZ6: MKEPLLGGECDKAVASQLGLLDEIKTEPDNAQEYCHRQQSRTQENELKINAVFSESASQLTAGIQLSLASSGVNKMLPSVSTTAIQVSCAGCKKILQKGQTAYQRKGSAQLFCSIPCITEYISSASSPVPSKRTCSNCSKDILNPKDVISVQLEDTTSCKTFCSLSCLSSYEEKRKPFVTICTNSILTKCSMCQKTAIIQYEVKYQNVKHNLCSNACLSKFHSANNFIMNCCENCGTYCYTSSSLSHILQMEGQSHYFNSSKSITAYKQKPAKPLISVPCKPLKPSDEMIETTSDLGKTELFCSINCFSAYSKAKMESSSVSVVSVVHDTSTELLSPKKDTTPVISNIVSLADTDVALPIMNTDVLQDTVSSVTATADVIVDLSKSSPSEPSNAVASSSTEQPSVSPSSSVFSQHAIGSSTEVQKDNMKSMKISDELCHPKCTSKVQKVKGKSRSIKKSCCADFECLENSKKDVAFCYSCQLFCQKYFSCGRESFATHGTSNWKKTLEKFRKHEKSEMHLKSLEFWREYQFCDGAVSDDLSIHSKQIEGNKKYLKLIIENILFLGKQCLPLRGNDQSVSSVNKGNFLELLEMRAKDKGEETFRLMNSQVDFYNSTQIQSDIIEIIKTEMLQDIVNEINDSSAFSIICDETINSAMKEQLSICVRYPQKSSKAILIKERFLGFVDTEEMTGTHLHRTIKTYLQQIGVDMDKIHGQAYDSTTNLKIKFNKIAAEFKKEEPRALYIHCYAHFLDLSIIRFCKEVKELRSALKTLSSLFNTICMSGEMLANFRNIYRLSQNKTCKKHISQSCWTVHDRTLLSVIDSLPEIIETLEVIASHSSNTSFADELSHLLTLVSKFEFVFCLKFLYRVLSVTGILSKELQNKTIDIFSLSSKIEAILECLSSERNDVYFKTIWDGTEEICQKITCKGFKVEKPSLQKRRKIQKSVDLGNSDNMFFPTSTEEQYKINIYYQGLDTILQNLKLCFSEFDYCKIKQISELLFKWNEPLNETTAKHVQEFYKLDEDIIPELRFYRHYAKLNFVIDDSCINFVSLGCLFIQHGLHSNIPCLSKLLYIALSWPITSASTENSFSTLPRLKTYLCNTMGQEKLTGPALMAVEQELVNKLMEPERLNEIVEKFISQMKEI
# UniProt P13010: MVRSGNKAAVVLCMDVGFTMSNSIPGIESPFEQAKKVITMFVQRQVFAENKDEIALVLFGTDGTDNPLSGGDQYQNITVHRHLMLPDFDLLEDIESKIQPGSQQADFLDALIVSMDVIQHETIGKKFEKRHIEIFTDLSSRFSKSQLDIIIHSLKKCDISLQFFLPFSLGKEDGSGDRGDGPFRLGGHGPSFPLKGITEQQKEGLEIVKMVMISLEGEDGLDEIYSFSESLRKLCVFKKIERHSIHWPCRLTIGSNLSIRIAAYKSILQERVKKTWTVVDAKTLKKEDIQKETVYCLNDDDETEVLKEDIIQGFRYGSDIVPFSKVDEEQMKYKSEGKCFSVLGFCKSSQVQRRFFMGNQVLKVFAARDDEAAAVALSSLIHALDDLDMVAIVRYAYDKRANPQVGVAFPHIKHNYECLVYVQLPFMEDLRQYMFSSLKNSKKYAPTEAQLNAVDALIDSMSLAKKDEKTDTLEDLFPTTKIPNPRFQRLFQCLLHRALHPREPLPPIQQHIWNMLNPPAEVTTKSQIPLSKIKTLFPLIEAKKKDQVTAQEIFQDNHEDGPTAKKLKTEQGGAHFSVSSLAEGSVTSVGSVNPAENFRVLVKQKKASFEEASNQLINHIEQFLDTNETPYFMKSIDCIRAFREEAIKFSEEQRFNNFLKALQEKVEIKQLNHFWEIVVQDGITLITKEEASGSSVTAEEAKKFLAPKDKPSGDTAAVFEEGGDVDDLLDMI
# The other results are listed elsewhere or left out.
# Key:
# Experiment in all cases: log2 fold change, soluble protein after heating vs DMSO (PISA); higher = thermal stabilisation; K562 cells, 10 uM, 30 min; active = over 0.2 and 3.5 SD of the protein, either way, in both replicates (recomputed)
# [1] = compound: CC[C@@H]1C(=O)N(C)c2cnc(Nc3ccc(C(=O)NC4CCN(C)CC4)cc3OC)nc2N1C1CCCC1
# Procedure, shortened: (§1)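 Soluble protein was quantified by TMTpro 16plex LC-MS/MS after channel sums were equalised. It was obtained as the supernatant after 21,000xg for 90 min from pooled aliquots of K562 cells (2×10^6 cells/mL, 10 μM compound, 30 min) heated for 3 min across 48°C-58°C and extracted in PBS with 0.5% NP-40 at 4°C. Thermal stability values are relative to control samples and come from duplicates. They are given as log2 fold changes.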
# volasertib = compound: CC[C@@H]1C(=O)N(C)c2cnc(Nc3ccc(C(=O)N[C@H]4CC[C@H](N5CCN(CC6CC6)CC5)CC4)cc3OC)nc2N1C(C)C [volasertib]
# Procedure, shortened: as §1
# [2] = compound: CC[C@H](C)N1C=C(C2=C(C=C(C=C21)C3=CN=C(C=C3)N4CCNCC4)C(=O)NCC5=C(C=C(NC5=O)C)C)C
# Procedure, shortened: as §1
# epoxomicin = compound: CC[C@H](C)[C@@H](C(=O)N[C@@H]([C@@H](C)O)C(=O)N[C@@H](CC(C)C)C(=O)[C@]1(CO1)C)NC(=O)[C@H]([C@@H](C)CC)N(C)C(=O)C [epoxomicin]
# Procedure, shortened: as §1
# [3] = compound: CCn1cc(-c2ccnc3[nH]c(-c4cccc(CN(C)C)c4)cc23)c(-c2ccc(NC(=O)N(C)C)cc2)n1
# Procedure, shortened: as §1
# [4] = compound: CN(C)CC(=O)Nc1ccc2[nH]c(=O)c3ccccc3c2c1
# Procedure, shortened: as §1
# [5] = compound: CN1C2=C(C3=C1C(=O)N(N=C3)CC4=CC(=CC=C4)N)SC(=C2)S(=O)C
# Procedure, shortened: as §1
# [6] = compound: CN1CCC(CNc2ccc3ncc(-c4cccc(OC(F)(F)F)c4)n3n2)CC1
# Procedure, shortened: as §1
# saracatinib = compound: CN1CCN(CCOc2cc(OC3CCOCC3)c3c(Nc4c(Cl)ccc5c4OCO5)ncnc3c2)CC1 [saracatinib]
# Procedure, shortened: as §1
# sotrastaurin = compound: CN1CCN(c2nc(C3=C(c4c[nH]c5ccccc45)C(=O)NC3=O)c3ccccc3n2)CC1 [sotrastaurin]
# Procedure, shortened: as §1
# Tubastatin A = compound: CN1CCc2c(c3ccccc3n2Cc2ccc(C(=O)NO)cc2)C1 [Tubastatin A]
# Procedure, shortened: as §1
# [7] = compound: CNC(=O)C1=CC=CC=C1NC2=NC(=NC=C2Cl)NC3=C(C=C(C=C3)N4CCOCC4)OC
# Procedure, shortened: as §1
# defactinib = compound: CNC(=O)c1ccc(Nc2ncc(C(F)(F)F)c(NCc3nccnc3N(C)S(C)(=O)=O)n2)cc1 [defactinib]
# Procedure, shortened: as §1
# rucaparib = compound: CNCc1ccc(-c2[nH]c3cc(F)cc4c3c2CCNC4=O)cc1 [rucaparib]
# Procedure, shortened: as §1
# [8] = compound: CNc1nc(-c2ccc3c(N)n[nH]c3c2)cc(N2C[C@@H](C(=O)NC3CCCCC3)CC[C@H]2C)n1
# Procedure, shortened: as §1
# encorafenib = compound: COC(=O)N[C@@H](C)CNc1nccc(-c2cn(C(C)C)nc2-c2cc(Cl)cc(NS(C)(=O)=O)c2F)n1 [encorafenib]
# Procedure, shortened: as §1
# [9] = compound: COC(=O)[C@H](CCSC)NC(=O)C1=C(C=C(C=C1)NC[C@H](CS)N)C2=CC=CC=C2
# Procedure, shortened: as §1
# [10] = compound: CCn1c(C(=O)N(C2CC2)C2CC2)cc2c3c(ncn3C)c(Nc3cc(C)n(C)n3)nc21
# Procedure, shortened: as §1
# rosiglitazone = compound: CN(CCOC1=CC=C(C=C1)C[C@H]2C(=O)NC(=O)S2)C3=CC=CC=N3 (racemic) [rosiglitazone]
# Procedure, shortened: as §1
# alvocidib = compound: CN1CC[C@H](c2c(O)cc(O)c3c(=O)cc(-c4ccccc4Cl)oc23)[C@H](O)C1 [alvocidib]
# Procedure, shortened: as §1
Target,log2 fold change [1],log2 fold change (volasertib),log2 fold change [2],log2 fold change (epoxomicin),log2 fold change [3],log2 fold change [4],log2 fold change [5],log2 fold change [6],log2 fold change (saracatinib),log2 fold change (sotrastaurin),log2 fold change (Tubastatin A),log2 fold change [7],log2 fold change (defactinib),log2 fold change (rucaparib),log2 fold change [8],log2 fold change (encorafenib),log2 fold change [9],log2 fold change [10],log2 fold change (rosiglitazone),log2 fold change (alvocidib)
YWHAQ (UniProt P27348),inactive: -0.141,inactive: -0.073,inactive: 0.072,inactive: 0.111,inactive: 0.143,inactive: 0.16,inactive: -0.167,inactive: 0.585,inactive: 0.234,inactive: -0.043,inactive: -0.026,inactive: 0.049,inactive: 0,inactive: -0.016,inactive: 0.179,inactive: -0.016,inactive: 0.019,,,
XPO1 (UniProt O14980),inactive: -0.175,active: -0.546,inactive: 0.085,inactive: 0.023,inactive: -0.13,inactive: 0.058,inactive: -0.033,active: -0.343,inactive: 0.003,inactive: -0.088,inactive: 0.001,inactive: -0.028,inactive: -0.093,inactive: -0.012,inactive: 0.02,inactive: 0.094,inactive: -0.041,,,
XRCC6 (UniProt P12956),inactive: -0.205,active: -0.515,inactive: 0.095,inactive: 0.072,inactive: 0.008,inactive: 0.071,inactive: -0.014,inactive: -0.172,inactive: -0.013,inactive: -0.114,inactive: 0.099,inactive: -0.047,active: -0.264,inactive: -0.007,inactive: -0.015,inactive: 0.048,inactive: -0.041,,,
ZMIZ1 (UniProt Q9ULJ6),inactive: -0.022,inactive: -0.094,inactive: -0.014,inactive: 0.065,inactive: -0.054,inactive: 0.027,inactive: -0.035,inactive: 0.028,inactive: 0.031,inactive: -0.002,inactive: -0.001,inactive: -0.04,inactive: -0.055,inactive: -0.1,inactive: -0.023,inactive: 0.016,inactive: 0.021,inactive: -0.039,inactive: -0.008,inactive: 0.002
ZNF24 (UniProt P17028),inactive: 0,inactive: 0.211,inactive: 0.034,inactive: -0.076,inactive: 0.118,inactive: -0.057,inactive: 0.148,inactive: 0.001,inactive: 0.007,inactive: 0.051,inactive: 0.134,inactive: 0.021,inactive: -0.022,inactive: 0.161,inactive: 0.061,inactive: 0.058,inactive: 0.053,inactive: -0.024,inactive: -0.011,inactive: 0.031
XPO6 (UniProt Q96QU8),inactive: -0.054,active: -0.536,inactive: -0.017,inactive: -0.249,inactive: 0.174,inactive: 0.065,inactive: 0.018,inactive: -0.134,inactive: -0.012,inactive: -0.119,inactive: -0.009,inactive: 0.036,inactive: -0.104,inactive: 0.076,inactive: 0.037,inactive: 0.015,inactive: -0.03,,,
XPNPEP1 isoform 3 (UniProt Q9NQW7),inactive: 0.027,inactive: 0.049,inactive: 0.018,inactive: -0.024,inactive: -0.043,inactive: 0.051,inactive: -0.064,inactive: -0.076,inactive: 0.002,inactive: -0.005,inactive: -0.125,inactive: -0.027,inactive: -0.07,inactive: -0.033,inactive: -0.012,inactive: -0.008,active: 0.352,,,
ZDHHC14 (UniProt Q8IZN3),inactive: -0.002,inactive: 0.032,inactive: -0.066,inactive: 0.017,,inactive: 0.078,inactive: -0.046,,inactive: 0.054,inactive: 0.023,inactive: -0.157,inactive: -0.062,inactive: -0.126,inactive: -0.059,inactive: -0.076,inactive: 0.126,inactive: -0.049,inactive: 0.014,inactive: 0.104,inactive: -0.045
YAE1 (UniProt Q9NRH1),inactive: -0.022,inactive: -0.101,inactive: 0.02,inactive: 0.118,inactive: -0.015,inactive: -0.108,inactive: 0.046,inactive: 0.057,inactive: 0.025,inactive: 0.074,inactive: -0.018,inactive: -0.002,inactive: 0.026,inactive: -0.078,inactive: -0.092,inactive: 0.007,inactive: 0.059,,,active: 0.249
ZDHHC20 (UniProt Q5W0Z9),inactive: 0.031,inactive: 0.011,inactive: -0.046,inactive: -0.102,inactive: -0.016,inactive: -0.026,inactive: 0.084,inactive: 0.035,inactive: -0.045,inactive: 0.015,inactive: 0.02,inactive: 0,inactive: -0.231,inactive: 0.115,inactive: 0.121,inactive: -0.058,inactive: 0.028,,,
ZC3H13 (UniProt Q5T200),inactive: 0.057,inactive: 0.048,inactive: -0.136,inactive: -0.299,inactive: 0.142,inactive: -0.181,inactive: 0.036,inactive: -0.311,inactive: -0.428,,inactive: -0.095,inactive: 0.08,inactive: 0.084,inactive: 0.129,inactive: -0.202,inactive: -0.374,inactive: 0.206,inactive: -0.064,inactive: -0.082,inactive: 0.203
ZMAT2 (UniProt Q96NC0),inactive: 0.017,inactive: 0.036,inactive: -0.073,inactive: 0.103,inactive: 0.022,inactive: -0.018,inactive: -0.034,inactive: 0.008,inactive: 0.026,inactive: -0.088,inactive: 0.057,inactive: -0.018,inactive: -0.014,inactive: -0.206,inactive: -0.058,inactive: 0.106,inactive: 0.019,,,
YIPF4 (UniProt Q9BSR8),inactive: 0.022,inactive: 0.134,inactive: -0.016,inactive: -0.005,inactive: 0.037,inactive: 0.09,inactive: -0.06,inactive: 0.101,inactive: 0.072,inactive: 0.113,inactive: -0.028,inactive: 0.062,inactive: -0.016,inactive: -0.028,inactive: -0.082,inactive: -0.038,inactive: 0.088,,,
ZMYM1 (UniProt Q5SVZ6),inactive: 0.202,inactive: -0.118,inactive: -0.016,inactive: -0.05,inactive: 0.141,inactive: -0.046,inactive: -0.014,inactive: 0.086,inactive: -0.024,inactive: 0.027,inactive: 0.071,inactive: -0.082,active: 0.558,inactive: 0.331,inactive: -0.021,inactive: 0.082,inactive: 0.026,,,
XRCC5 (UniProt P13010),inactive: -0.172,inactive: -0.482,inactive: 0.207,inactive: 0.069,inactive: 0.009,inactive: 0.169,inactive: 0.124,inactive: -0.087,inactive: -0.057,inactive: -0.332,inactive: 0.173,inactive: -0.032,inactive: -0.37,inactive: 0.07,inactive: 0.048,inactive: 0.21,inactive: -0.067,,,
ZFAND5 (UniProt O76080),inactive: 0.052,inactive: 0.215,inactive: -0.045,active: 0.345,inactive: -0.017,inactive: -0.119,inactive: 0.022,inactive: -0.068,inactive: 0.08,inactive: 0.11,active: 0.285,inactive: -0.141,inactive: 0.085,inactive: -0.012,inactive: -0.072,inactive: -0.047,inactive: 0.1,,,
ZDHHC18 (UniProt Q9NUE0),inactive: 0.028,inactive: -0.138,inactive: -0.128,inactive: -0.007,inactive: 0.017,,inactive: -0.278,inactive: 0.105,inactive: 0.16,inactive: -0.041,inactive: -0.027,inactive: 0.057,,inactive: -0.15,inactive: 0.138,inactive: -0.089,,inactive: -0.03,inactive: 0.084,inactive: -0.038
XPO5 (UniProt Q9HAV4),inactive: -0.122,active: -0.263,inactive: 0.063,inactive: 0.073,inactive: -0.04,inactive: 0.018,inactive: -0.027,active: -0.302,inactive: 0,inactive: -0.087,inactive: -0.03,inactive: 0.008,inactive: -0.142,inactive: -0.028,inactive: 0.026,inactive: 0.054,inactive: -0.004,,,

# Some values from the results shown:
# Under log2 fold change (saracatinib), ZDHHC20 (UniProt Q5W0Z9) is entered as inactive: -0.045
# Under log2 fold change [8], ZC3H13 (UniProt Q5T200) is entered as inactive: -0.202
